These are yes or no findings as the source states them, for the method shown. Some results given as binding are weak or reduced against the parent protein; the word gives no strength.
Experiments:
[1] = biological target: tau in P301L tau mouse brain cortex lysates (human (transgene in mouse)) (UniProt P10636); assay: Western blot, P301L tau mouse brain cortex lysates
[2] = biological target: extracellular Tau (eTau) from conditioned media of human neurons (human) (UniProt P10636); assay: Western blot, iPSC-CN conditioned media
[3] = biological target: tau in iPSC-CN lysates (human) (UniProt P10636); assay: Western blot
[4] = biological target: tau in AD brain lysates (UniProt P10636); assay: Western blot
[5] = biological target: tau in P301L tau mouse brain cortex lysates (human (transgene in mouse)) (UniProt P10636); assay: Western blot
[6] = biological target: extracellular Tau (eTau) from conditioned media of human neurons (human) (UniProt P10636); assay: Western blot
[7] = biological target: tau in iPSC-CN lysates (human) (UniProt P10636); assay: Western blot, iPSC-CN lysates
[8] = biological target: eTau4 (UniProt P10636); assay: Octet analysis
[9] = biological target: tau in AD brain lysates (UniProt P10636); assay: Western blot, AD brain lysates
[10] = biological target: extracellular Tau (eTau) from conditioned media of human neurons (human) (UniProt P10636); assay: affinity purification from iPSC-CN conditioned media
[11] = biological target: extracellular Tau (eTau) from conditioned media of human neurons (human) (UniProt P10636); assay: affinity isolation on antibody resin, eluate Western blotted with IPN001
[12] = biological target: extracellular Tau (eTau) from conditioned media of human neurons (human) (UniProt P10636); assay: affinity isolation on antibody resin, eluate Western blotted

By UniProt entry, the sequences of proteins in these tests, tags left out. Where a name states a change or a piece, a line headed by the entry shows the natural chain unless it says otherwise. Chains listed by the source or under a name are the forms on record and can include a tag or linker.
tau in P301L tau mouse brain cortex lysates (human (transgene in mouse)) (P10636, form named): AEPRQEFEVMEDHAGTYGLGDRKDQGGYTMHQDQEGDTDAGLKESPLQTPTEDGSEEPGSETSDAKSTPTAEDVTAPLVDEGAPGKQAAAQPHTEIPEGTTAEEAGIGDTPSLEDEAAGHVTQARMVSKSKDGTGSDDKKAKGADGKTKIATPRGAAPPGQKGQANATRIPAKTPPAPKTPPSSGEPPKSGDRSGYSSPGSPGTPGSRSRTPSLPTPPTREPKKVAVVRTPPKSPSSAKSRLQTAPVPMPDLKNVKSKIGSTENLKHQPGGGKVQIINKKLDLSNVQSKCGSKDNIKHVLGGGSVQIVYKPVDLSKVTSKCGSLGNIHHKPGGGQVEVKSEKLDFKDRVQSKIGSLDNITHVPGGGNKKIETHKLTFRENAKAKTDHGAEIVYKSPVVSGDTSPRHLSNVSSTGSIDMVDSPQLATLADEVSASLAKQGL
extracellular Tau (eTau) from conditioned media of human neurons (P10636, form named): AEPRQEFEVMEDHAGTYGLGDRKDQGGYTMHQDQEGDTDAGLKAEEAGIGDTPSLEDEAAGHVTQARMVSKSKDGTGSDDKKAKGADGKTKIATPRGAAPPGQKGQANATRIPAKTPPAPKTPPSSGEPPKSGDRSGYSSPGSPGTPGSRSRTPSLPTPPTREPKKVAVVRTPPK
tau in iPSC-CN lysates (P10636, form named): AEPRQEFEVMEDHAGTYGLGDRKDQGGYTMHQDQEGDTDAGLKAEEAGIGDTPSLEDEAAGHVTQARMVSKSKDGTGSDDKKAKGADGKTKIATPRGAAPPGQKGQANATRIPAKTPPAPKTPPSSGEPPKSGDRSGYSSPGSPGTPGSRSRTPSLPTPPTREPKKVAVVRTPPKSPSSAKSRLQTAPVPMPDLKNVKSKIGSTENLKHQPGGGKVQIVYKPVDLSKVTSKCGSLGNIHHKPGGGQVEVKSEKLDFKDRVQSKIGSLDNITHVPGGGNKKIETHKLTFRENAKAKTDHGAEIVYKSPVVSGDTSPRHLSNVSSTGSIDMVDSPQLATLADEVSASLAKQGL
tau in AD brain lysates (P10636, form named): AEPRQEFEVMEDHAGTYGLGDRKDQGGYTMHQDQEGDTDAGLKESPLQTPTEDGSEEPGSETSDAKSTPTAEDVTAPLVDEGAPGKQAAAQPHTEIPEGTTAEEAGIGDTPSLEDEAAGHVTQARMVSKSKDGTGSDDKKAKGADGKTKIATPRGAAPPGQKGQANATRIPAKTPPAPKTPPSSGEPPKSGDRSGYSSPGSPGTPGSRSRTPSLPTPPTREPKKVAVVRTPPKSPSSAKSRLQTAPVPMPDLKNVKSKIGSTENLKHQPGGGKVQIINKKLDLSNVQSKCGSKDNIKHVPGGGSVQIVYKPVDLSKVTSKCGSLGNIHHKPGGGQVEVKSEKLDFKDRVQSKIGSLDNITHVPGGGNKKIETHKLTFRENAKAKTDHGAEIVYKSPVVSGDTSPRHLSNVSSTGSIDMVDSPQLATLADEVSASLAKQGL
eTau4 (P10636, form named): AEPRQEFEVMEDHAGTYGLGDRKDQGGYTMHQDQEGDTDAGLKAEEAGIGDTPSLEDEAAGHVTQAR

B1: humanized IPN002 variant VH2/Vk1 (antibody, V domains shown)
VH: EVHLVESGGALVKPGGSLRLSCAASGFSFSKYGMSWVRQAPGKGLEWVATISSSGSRTYYPDSVKGRFTISRDNAKNTLYLQMNSLRAEDTAMYYCSISWDGAMDYWGQGTTVTVSS
VL: DVLMTQSPLSLPVTLGQPASISCKSSQSIVHSNGNTYLEWYLQKPGQSPQLLVYKVSNRFSGVPDRFSGSGSGTDFTLKISRVEAEDVGTYYCFQGSLVPWAFGGGTKVEIK
binding [1]: binds
binding [2]: binds
binding [3]: binds
binding [4]: binds
binding [5]: binds
binding [6]: binds
binding [7]: binds
binding [8]: binds
binding [9]: binds

B2: humanized IPN002 variant VH2/Vk2 (antibody, V domains shown)
VH: EVHLVESGGALVKPGGSLRLSCAASGFSFSKYGMSWVRQAPGKGLEWVATISSSGSRTYYPDSVKGRFTISRDNAKNTLYLQMNSLRAEDTAMYYCSISWDGAMDYWGQGTTVTVSS
VL: DVVMTQSPLSLPVTLGQPASISCKSSQSIVHSNGNTYLEWYLQKPGQSPQLLVYKVSNRFSGVPDRFSGSGSGTDFTLKISRVEAEDVGTYYCFQGSLVPWAFGGGTKVEIK
binding [1]: binds
binding [2]: binds
binding [3]: binds
binding [4]: binds
binding [5]: binds
binding [6]: binds
binding [7]: binds
binding [8]: binds
binding [9]: binds

B3: humanized IPN002 variant VH2/Vk3 (antibody, V domains shown)
VH: EVHLVESGGALVKPGGSLRLSCAASGFSFSKYGMSWVRQAPGKGLEWVATISSSGSRTYYPDSVKGRFTISRDNAKNTLYLQMNSLRAEDTAMYYCSISWDGAMDYWGQGTTVTVSS
VL: DVVMTQSPLSLPVTLGQPASISCKSSQSIVHSNGNTYLEWYLQKPGQSPQLLVYKVSNRFSGVPDRFSGSGSGTDFTLKISRVEAEDVGVYYCFQGSLVPWAFGGGTKVEIK
binding [1]: binds
binding [2]: binds
binding [3]: binds
binding [4]: binds
binding [5]: binds
binding [6]: binds
binding [7]: binds
binding [8]: binds
binding [9]: binds

B4: IPN002 (antibody, V domains shown)
VH: EVHLVESGGALVKPGGSLKLSCAASGFSFSKYGMSWVRQTPDKRLEWVATISSSGSRTYYPDSVKGQFTISRDNAKNTLYLQMSSLKSEDTAMYYCSISWDGAMDYWGQGTSVTVSS
VL: DVLMTQTPLSLPVSLGDQASISCKSSQSIVHSNGNTYLEWYLQKPGQSPKLLVYKVSNRFSGVPDRFSGSGSGTDFTLKISRVEAEDLGTYYCFQGSLVPWAFGGGTKLEIK
binding [10]: binds
binding [11]: binds
binding [12]: binds

B5: humanized IPN002 variant VH1/Vk1 (antibody, V domains shown)
VH: EVHLVESGGALVKPGGSLRLSCAASGFSFSKYGMSWVRQAPGKGLEWVATISSSGSRTYYPDSVKGRFTISRDNAKNTLYLQMSSLKSEDTAMYYCSISWDGAMDYWGQGTSVTVSS
VL: DVLMTQSPLSLPVTLGQPASISCKSSQSIVHSNGNTYLEWYLQKPGQSPQLLVYKVSNRFSGVPDRFSGSGSGTDFTLKISRVEAEDVGTYYCFQGSLVPWAFGGGTKVEIK
binding [8]: binds

B6: humanized IPN002 variant VH4/Vk4 (antibody, V domains shown)
VH: EVQLVESGGALVKPGGSLRLSCAASGFSFSKYGMSWVRQAPGKGLEWVATISSSGSRTYYPDSVKGRFTISRDNAKNTLYLQMNSLRAEDTAMYYCAISWDGAMDYWGQGTTVTVSS
VL: DVVMTQSPLSLPVTLGQPASISCKSSQSIVHSNGNTYLEWYLQKPGQSPQLLIYKVSNRFSGVPDRFSGSGSGTDFTLKISRVEAEDVGVYYCFQGSLVPWAFGGGTKVEIK
binding [8]: binds

B7: humanized IPN002 variant VH1/Vk2 (antibody, V domains shown)
VH: EVHLVESGGALVKPGGSLRLSCAASGFSFSKYGMSWVRQAPGKGLEWVATISSSGSRTYYPDSVKGRFTISRDNAKNTLYLQMSSLKSEDTAMYYCSISWDGAMDYWGQGTSVTVSS
VL: DVVMTQSPLSLPVTLGQPASISCKSSQSIVHSNGNTYLEWYLQKPGQSPQLLVYKVSNRFSGVPDRFSGSGSGTDFTLKISRVEAEDVGTYYCFQGSLVPWAFGGGTKVEIK
binding [8]: binds

B8: humanized IPN002 variant VH1/Vk3 (antibody, V domains shown)
VH: EVHLVESGGALVKPGGSLRLSCAASGFSFSKYGMSWVRQAPGKGLEWVATISSSGSRTYYPDSVKGRFTISRDNAKNTLYLQMSSLKSEDTAMYYCSISWDGAMDYWGQGTSVTVSS
VL: DVVMTQSPLSLPVTLGQPASISCKSSQSIVHSNGNTYLEWYLQKPGQSPQLLVYKVSNRFSGVPDRFSGSGSGTDFTLKISRVEAEDVGVYYCFQGSLVPWAFGGGTKVEIK
binding [8]: binds

B9: humanized IPN002 variant VH1/Vk4 (antibody, V domains shown)
VH: EVHLVESGGALVKPGGSLRLSCAASGFSFSKYGMSWVRQAPGKGLEWVATISSSGSRTYYPDSVKGRFTISRDNAKNTLYLQMSSLKSEDTAMYYCSISWDGAMDYWGQGTSVTVSS
VL: DVVMTQSPLSLPVTLGQPASISCKSSQSIVHSNGNTYLEWYLQKPGQSPQLLIYKVSNRFSGVPDRFSGSGSGTDFTLKISRVEAEDVGVYYCFQGSLVPWAFGGGTKVEIK
binding [8]: binds

B10: humanized IPN002 variant VH2/Vk4 (antibody, V domains shown)
VH: EVHLVESGGALVKPGGSLRLSCAASGFSFSKYGMSWVRQAPGKGLEWVATISSSGSRTYYPDSVKGRFTISRDNAKNTLYLQMNSLRAEDTAMYYCSISWDGAMDYWGQGTTVTVSS
VL: DVVMTQSPLSLPVTLGQPASISCKSSQSIVHSNGNTYLEWYLQKPGQSPQLLIYKVSNRFSGVPDRFSGSGSGTDFTLKISRVEAEDVGVYYCFQGSLVPWAFGGGTKVEIK
binding [8]: binds

B11: humanized IPN002 variant VH3/Vk1 (antibody, V domains shown)
VH: EVQLVESGGALVKPGGSLRLSCAASGFSFSKYGMSWVRQAPGKGLEWVATISSSGSRTYYPDSVKGRFTISRDNAKNTLYLQMNSLRAEDTAMYYCSISWDGAMDYWGQGTTVTVSS
VL: DVLMTQSPLSLPVTLGQPASISCKSSQSIVHSNGNTYLEWYLQKPGQSPQLLVYKVSNRFSGVPDRFSGSGSGTDFTLKISRVEAEDVGTYYCFQGSLVPWAFGGGTKVEIK
binding [8]: binds

B12: humanized IPN002 variant VH3/Vk2 (antibody, V domains shown)
VH: EVQLVESGGALVKPGGSLRLSCAASGFSFSKYGMSWVRQAPGKGLEWVATISSSGSRTYYPDSVKGRFTISRDNAKNTLYLQMNSLRAEDTAMYYCSISWDGAMDYWGQGTTVTVSS
VL: DVVMTQSPLSLPVTLGQPASISCKSSQSIVHSNGNTYLEWYLQKPGQSPQLLVYKVSNRFSGVPDRFSGSGSGTDFTLKISRVEAEDVGTYYCFQGSLVPWAFGGGTKVEIK
binding [8]: binds

B13: humanized IPN002 variant VH3/Vk3 (antibody, V domains shown)
VH: EVQLVESGGALVKPGGSLRLSCAASGFSFSKYGMSWVRQAPGKGLEWVATISSSGSRTYYPDSVKGRFTISRDNAKNTLYLQMNSLRAEDTAMYYCSISWDGAMDYWGQGTTVTVSS
VL: DVVMTQSPLSLPVTLGQPASISCKSSQSIVHSNGNTYLEWYLQKPGQSPQLLVYKVSNRFSGVPDRFSGSGSGTDFTLKISRVEAEDVGVYYCFQGSLVPWAFGGGTKVEIK
binding [8]: binds

B14: humanized IPN002 variant VH3/Vk4 (antibody, V domains shown)
VH: EVQLVESGGALVKPGGSLRLSCAASGFSFSKYGMSWVRQAPGKGLEWVATISSSGSRTYYPDSVKGRFTISRDNAKNTLYLQMNSLRAEDTAMYYCSISWDGAMDYWGQGTTVTVSS
VL: DVVMTQSPLSLPVTLGQPASISCKSSQSIVHSNGNTYLEWYLQKPGQSPQLLIYKVSNRFSGVPDRFSGSGSGTDFTLKISRVEAEDVGVYYCFQGSLVPWAFGGGTKVEIK
binding [8]: binds

B15: humanized IPN002 variant VH4/Vk1 (antibody, V domains shown)
VH: EVQLVESGGALVKPGGSLRLSCAASGFSFSKYGMSWVRQAPGKGLEWVATISSSGSRTYYPDSVKGRFTISRDNAKNTLYLQMNSLRAEDTAMYYCAISWDGAMDYWGQGTTVTVSS
VL: DVLMTQSPLSLPVTLGQPASISCKSSQSIVHSNGNTYLEWYLQKPGQSPQLLVYKVSNRFSGVPDRFSGSGSGTDFTLKISRVEAEDVGTYYCFQGSLVPWAFGGGTKVEIK
binding [8]: binds

B16: humanized IPN002 variant VH4/Vk2 (antibody, V domains shown)
VH: EVQLVESGGALVKPGGSLRLSCAASGFSFSKYGMSWVRQAPGKGLEWVATISSSGSRTYYPDSVKGRFTISRDNAKNTLYLQMNSLRAEDTAMYYCAISWDGAMDYWGQGTTVTVSS
VL: DVVMTQSPLSLPVTLGQPASISCKSSQSIVHSNGNTYLEWYLQKPGQSPQLLVYKVSNRFSGVPDRFSGSGSGTDFTLKISRVEAEDVGTYYCFQGSLVPWAFGGGTKVEIK
binding [8]: binds

B17: humanized IPN002 variant VH4/Vk3 (antibody, V domains shown)
VH: EVQLVESGGALVKPGGSLRLSCAASGFSFSKYGMSWVRQAPGKGLEWVATISSSGSRTYYPDSVKGRFTISRDNAKNTLYLQMNSLRAEDTAMYYCAISWDGAMDYWGQGTTVTVSS
VL: DVVMTQSPLSLPVTLGQPASISCKSSQSIVHSNGNTYLEWYLQKPGQSPQLLVYKVSNRFSGVPDRFSGSGSGTDFTLKISRVEAEDVGVYYCFQGSLVPWAFGGGTKVEIK
binding [8]: binds

Source: patent US20150232544A1
